Experimental data taken from article PMC7408900.
Changes are numbered by the printed parent chain. The exact form of at least one protein or probe is not confirmed. Weaker means in comparison with the reference protein, sequence or condition of that experiment. For part of these data: At least one verdict rests on a figure or table, not on a statement of the authors. For part of these data: Tags and fusion partners may be left off the protein sequences shown.

Protein sequences, listed by entry. Tags and fused reporters are not part of them.
UniProt P26368, whole entry G319V: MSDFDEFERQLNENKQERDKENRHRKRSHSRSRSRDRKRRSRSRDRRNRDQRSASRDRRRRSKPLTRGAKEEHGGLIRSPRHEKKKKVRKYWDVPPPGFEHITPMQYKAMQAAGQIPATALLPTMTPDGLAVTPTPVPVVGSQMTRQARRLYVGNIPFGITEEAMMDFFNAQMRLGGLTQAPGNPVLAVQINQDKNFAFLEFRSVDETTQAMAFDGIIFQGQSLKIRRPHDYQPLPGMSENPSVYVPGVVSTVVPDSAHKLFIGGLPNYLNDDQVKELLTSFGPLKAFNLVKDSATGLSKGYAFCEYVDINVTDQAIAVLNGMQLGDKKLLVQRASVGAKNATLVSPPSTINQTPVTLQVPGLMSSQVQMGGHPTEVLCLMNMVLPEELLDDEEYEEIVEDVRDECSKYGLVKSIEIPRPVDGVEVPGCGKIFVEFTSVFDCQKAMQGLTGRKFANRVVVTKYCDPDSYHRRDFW
UniProt P26368, whole entry G154V: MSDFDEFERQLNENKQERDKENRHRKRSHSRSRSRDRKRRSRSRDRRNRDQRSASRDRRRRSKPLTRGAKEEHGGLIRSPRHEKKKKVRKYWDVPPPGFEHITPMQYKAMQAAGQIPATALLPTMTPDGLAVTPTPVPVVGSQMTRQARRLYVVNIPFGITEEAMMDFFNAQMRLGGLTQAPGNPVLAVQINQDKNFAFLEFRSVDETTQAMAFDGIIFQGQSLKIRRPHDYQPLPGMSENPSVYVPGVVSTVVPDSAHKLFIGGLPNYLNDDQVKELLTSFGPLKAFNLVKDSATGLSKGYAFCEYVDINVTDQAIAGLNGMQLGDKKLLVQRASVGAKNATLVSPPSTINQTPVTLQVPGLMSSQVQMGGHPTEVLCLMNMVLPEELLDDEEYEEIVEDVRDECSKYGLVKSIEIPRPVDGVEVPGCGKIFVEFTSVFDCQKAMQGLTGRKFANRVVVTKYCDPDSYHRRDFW

Experiments:
Experiment in all cases: EMSA
PUF60 H169Y (human) = target: T1, PUF60 H169Y (human) (UniProt Q9UHX1); details: EMSA: 40 mM Tris pH 8.0, 5 mM MgCl2, 0.25 ug/uL heparin, 0.01% Triton, 1 mM DTT, room temperature 20 min, 6% native PAGE in 0.5x TBE at 4 C, 15-17 nM biotin-RNA, recombinant protein, protein details: 2xHis-lipoyl-TEV, removed by TEV, label: 5' biotin
T1 sequence (looked up, limits assumed): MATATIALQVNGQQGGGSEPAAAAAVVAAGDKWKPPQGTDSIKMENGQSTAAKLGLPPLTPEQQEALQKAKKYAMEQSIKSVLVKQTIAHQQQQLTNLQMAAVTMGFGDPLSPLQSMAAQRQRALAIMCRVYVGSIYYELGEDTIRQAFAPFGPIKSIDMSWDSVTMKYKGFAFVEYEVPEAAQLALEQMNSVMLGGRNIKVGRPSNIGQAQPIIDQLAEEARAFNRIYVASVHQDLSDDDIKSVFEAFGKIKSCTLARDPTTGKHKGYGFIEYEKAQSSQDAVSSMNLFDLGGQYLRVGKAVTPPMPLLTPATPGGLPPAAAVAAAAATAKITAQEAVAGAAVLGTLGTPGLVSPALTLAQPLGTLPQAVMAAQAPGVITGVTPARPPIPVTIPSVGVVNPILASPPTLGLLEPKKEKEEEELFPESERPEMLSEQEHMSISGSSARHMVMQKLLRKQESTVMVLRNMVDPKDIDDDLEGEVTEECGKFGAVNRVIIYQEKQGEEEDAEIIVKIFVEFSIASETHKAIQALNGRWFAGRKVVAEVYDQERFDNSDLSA

PUF60 A231P (human) = target: T2, PUF60 A231P (human) (UniProt Q9UHX1); details: EMSA: 40 mM Tris pH 8.0, 5 mM MgCl2, 0.25 ug/uL heparin, 0.01% Triton, 1 mM DTT, room temperature 20 min, 6% native PAGE in 0.5x TBE at 4 C, recombinant protein, protein details: 2xHis-lipoyl-TEV, removed by TEV, label: 5' biotin
T2 sequence (looked up, limits assumed): T1 sequence (looked up, limits assumed) with Y169H, A231P

U2AF65 G319V (human) = U2AF65 G319V (human) (UniProt P26368); details: still detectable binding, 0.26-2.1 uM protein; EMSA: 40 mM Tris pH 8.0, 5 mM MgCl2, 0.25 ug/uL heparin, 0.01% Triton, 1 mM DTT, room temperature 20 min; 6% native PAGE in 0.5x TBE at 4 C; 15-17 nM biotin-RNA; recombinant protein; label: 5' biotin
PUF60 L140P (human) = target: T3, PUF60 L140P (human) (UniProt Q9UHX1); details: EMSA: 40 mM Tris pH 8.0, 5 mM MgCl2, 0.25 ug/uL heparin, 0.01% Triton, 1 mM DTT, room temperature 20 min, 6% native PAGE in 0.5x TBE at 4 C, recombinant protein, protein details: 2xHis-lipoyl-TEV, removed by TEV, label: 5' biotin
T3 sequence (looked up, limits assumed): T1 sequence (looked up, limits assumed) with L140P, Y169H

U2AF65 G154V (human) = U2AF65 G154V (human) (UniProt P26368); details: 0.26-2.1 uM protein, 17 nM RNA; EMSA: 40 mM Tris pH 8.0, 5 mM MgCl2, 0.25 ug/uL heparin, 0.01% Triton, 1 mM DTT, room temperature 20 min; 6% native PAGE in 0.5x TBE at 4 C; 15-17 nM biotin-RNA; recombinant protein; label: 5' biotin
[1] = 0.14-1.25 uM protein, 15-17 nM biotin-RNA

Measured: binding result

CUUUUUGUUUCCUUUUUUUUUUAAUUUAAAGG [UBE2F-cr3'ss-32]
binds more weakly: PUF60 H169Y (human); lower affinity than can probe, approximate Kd only in figure (no saturation), Hill 6.4 | PUF60 A231P (human); 15-17 nM … | U2AF65 G319V (human) | PUF60 L140P (human); 15-17 nM … | U2AF65 G154V (human)

UUCGUGCUGACCUGUCCCUUUUUUUUCCACAGC [AdML]
binds more weakly: PUF60 H169Y (human); intermediate binding, 0.14-1.25 uM protein | PUF60 A231P (human); [1] | PUF60 L140P (human); [1]

UUUUUUUGUUUUGUUUUGUGUUUUUUGAUAGA [UBE2F-can3'ss-32]
binds more weakly: PUF60 A231P (human); 15-17 nM … | U2AF65 G319V (human) | PUF60 L140P (human); 15-17 nM … | U2AF65 G154V (human)
